# Test results reported in patent publication US11357873B2, “Chiral cyclen compounds and their uses” (THE HONG KONG POLYTECHNIC UNIVERSITY, priority 2016, dated 2022).
# Some results were stated once for a whole list of compounds, not compound by compound.
# Experiment: Rate of complexation of ligands with metal salts under mild (radiolabeling) conditions
# Assay type: physicochemical
# Conditions: ammonium acetate buffer 1.25 M, pH 5.5, 40° C.
row,Structure (SMILES),time to complete complexation with Ga(III) and Lu(III) [min]
1,"C[C@H]1CN(CC(=O)O)[C@@H](C)CN(CC(=O)O)[C@@H](C)CN(CC(=O)O)[C@@H](C)CN1CC(=O)O [Complex L1, 2,2′,2″,2′″-((2S,5S,8S,11S)-2,5,8,11-tetramethyl-1,4,7,10-tetraazacyclododecane-1,4,7,10-tetrayl)tetraacetic acid]",≤ 30
2,"CC[C@H]1CN(CC(=O)O)[C@@H](CC)CN(CC(=O)O)[C@@H](CC)CN(CC(=O)O)[C@@H](CC)CN1CC(=O)O [Complex L2, 2,2′,2″,2′″-((2S,5S,8S,11S)-2,5,8,11-tetraethyl-1,4,7,10-tetraazacyclododecane-1,4,7,10-tetrayl)tetraacetic acid]",≤ 30
